The record followed here is PubChem BioAssay AID248 (DTP/NCI, 2004).

The subject of this assay is L1210 leukemia ip in BDF1 mice, survival T/C. Kind of assay: NCI In Vivo Anticancer Drug Screen. Data for tumor model L1210 Leukemia (intraperitoneal) in B6D2F1 (BDF1) mice. The conditions noted are these: higher T/C = longer survival.
[1] abbreviates: T/C endpoint: mean survival time, dose: 40.0 mg/kg/injection, schedule: Q01DX001 (ip), vehicle: saline.
The mark [2] stands for this setting: T/C endpoint: mean survival time, dose: 80.0 mg/kg/injection, schedule: Q01DX001 (ip), vehicle: saline.
[3] abbreviates: T/C endpoint: mean survival time, dose: 100.0 mg/kg/injection, schedule: Q01DX001 (ip), vehicle: saline.
[4] abbreviates: T/C endpoint: mean survival time, dose: 200.0 mg/kg/injection, schedule: Q01DX001 (ip), vehicle: saline.
[5] abbreviates: T/C endpoint: mean survival time, dose: 400.0 mg/kg/injection, schedule: Q01DX001 (ip), vehicle: saline.
Where [6] appears, read: T/C endpoint: mean survival time, dose: 400.0 mg/kg/injection, schedule: Q01DX009 (ip), vehicle: Klucel (hydroxypropylcellulose) (HPC).
Setting [7] is: T/C endpoint: mean survival time, dose: 200.0 mg/kg/injection, schedule: Q01DX009 (ip), vehicle: saline with Tween-80.
[8] abbreviates: T/C endpoint: mean survival time, dose: 300.0 mg/kg/injection, schedule: Q01DX001 (ip), vehicle: saline.
Where [9] appears, read: T/C endpoint: mean survival time, dose: 200.0 mg/kg/injection, schedule: Q01DX009 (ip), vehicle: saline.
Where [10] appears, read: T/C endpoint: mean survival time, dose: 100.0 mg/kg/injection, schedule: Q01DX009 (ip), vehicle: Klucel (hydroxypropylcellulose) (HPC).
The mark [11] stands for this setting: T/C endpoint: mean survival time, dose: 200.0 mg/kg/injection, schedule: Q01DX009 (ip), vehicle: Klucel (hydroxypropylcellulose) (HPC).
The mark [12] stands for this setting: T/C endpoint: mean survival time, dose: 100.0 mg/kg/injection, schedule: Q04DX002 (ip), vehicle: saline.
[13] abbreviates: T/C endpoint: mean survival time, dose: 200.0 mg/kg/injection, schedule: Q04DX002 (ip), vehicle: saline.
[14] abbreviates: T/C endpoint: mean survival time, dose: 400.0 mg/kg/injection, schedule: Q04DX002 (ip), vehicle: saline.
Where [15] appears, read: T/C endpoint: mean survival time, dose: 100.0 mg/kg/injection, schedule: Q01DX009 (ip), vehicle: saline with Tween-80.
The mark [16] stands for this setting: T/C endpoint: mean survival time, dose: 400.0 mg/kg/injection, schedule: Q04DX003 (ip), vehicle: saline with Tween-80.
Setting [17] is: T/C endpoint: mean survival time, dose: 400.0 mg/kg/injection, schedule: Q01DX001 (ip), vehicle: carboxymethylcellulose (CMC).

The list does not hold the whole screen: it is rich in T/C values a quarter to a half above the control, in often repeated tests (any T/C) and in doses without a T/C. Further doses and runs are listed elsewhere. T/C is the treated group as % of the vehicle group. Some doses have a count of surviving animals in place of a T/C: the source holds a T/C of zero for them, seemingly a mark for toxic or unscored doses. Some survivor counts are full or nearly so, which does not show that the dose was tolerated: survival well below the control is almost never listed, so the zero probably covers shortened survival too. Counts of survivors are from the toxicity check (mostly the fifth day) where no day follows; animals may have died later. Schedules are NCI's codes, read here as Q, the interval in days (D) or hours (H), X, the number of doses. Some schedule codes hold Z or #, which are not explained here. Some entries were tested several times; the results are listed from low to high. Where survival is the endpoint, the PubChem record calls one and a half times the control and up active, and a quarter to a half above the control has no call in these data; cut-offs in other NCI protocols can differ.

`CN1CCC(OC(=O)C(F)(c2ccccc2)c2ccccc2)CC1`: the survivor count under setting [1] was 3 of 6; the survivor count under setting [2] was 0 of 6; the survivor count under setting [3] is 0 of 6; the survivor count under setting [4] was 0 of 6; the survivor count under setting [5] was 0 of 6.

Regarding `O=C(O)c1ccc(Cl)o1`, under setting [6], the survivor count was 6 of 6.

Regarding `CCC(=O)O[C@H]1CC[C@H]2[C@@H]3[C@@H](C)CC4=CC(=O)CC[C@]4(C)[C@H]3CC[C@]12C`, the survivor count under setting [7] is 6 of 6.

For `Brc1cc(Br)c2[nH]c3c(Br)cc(Br)cc3c2c1`, the survivor count under setting [6] was 1 of 6.

Turning to `Cc1ccc(/C=C2/COC/C(=C\c3ccc(C)cc3)C2=O)cc1`, the survivor count by setting is: (T/C endpoint: mean survival time, dose: 50.0 mg/kg/injection, schedule: Q01DX001 (ip), vehicle: saline) 6 of 6; under setting [3], 6 of 6; under setting [4], 6 of 6; under setting [5], 5 of 6.

Take `CN(C)CCCNCC(=O)Nc1ccc(S(=O)(=O)c2ccc([N+](=O)[O-])cc2)cc1`: the survivor count under setting [8] is listed as 1 of 6.

Take `C/C=C\C=N\N(C)C`: the survivor count under setting [9] is on record as 0 of 6 and the survivor count (T/C endpoint: mean survival time, dose: 400.0 mg/kg/injection, schedule: Q04DX003 (ip), vehicle: saline) was 1 of 6.

Turning to `CCOC(=O)CNC(=O)Oc1c(Cl)cccc1Cl`, the survivor count under setting [10] is given as 6 of 6, the survivor count under setting [11] is reported as 5 of 6 and the survivor count under setting [6] was 0 of 6.

Take `COc1cc(N2C(=O)C=CC2=O)ccc1N1C(=O)C=CC1=O`: the survivor count is recorded as 1 of 6 (T/C endpoint: mean survival time, dose: 20.0 mg/kg/injection, schedule: Q01DX001 (ip), vehicle: saline); 0 of 6 under setting [1]; 0 of 6 under setting [2]; 0 of 6 under setting [3]; 0 of 6 under setting [4]; 0 of 6 under setting [5].

As to `CCCCCCCC/C=C\CCCCCCCCNP(=O)(OCCCCCCCCCCCC)OCCCCCCCCCCCC`, under “T/C endpoint: mean survival time, dose: 200.0 mg/kg/injection, schedule: Q04DX002 (ip), vehicle: saline with Tween-80”, the T/C is 130 % of control.

Consider `COc1ccc(C(O)CCN2CCCCC2)cc1` (stereo unspecified), for which the survivor count runs as follows: (T/C endpoint: mean survival time, dose: 200.0 mg/kg/injection, schedule: Q01DX001 (ip), vehicle: saline with Tween-80) 1 of 6; (T/C endpoint: mean survival time, dose: 400.0 mg/kg/injection, schedule: Q01DX001 (ip), vehicle: saline with Tween-80) 1 of 6.

With `CC1(C)CN1P(=O)(OCCc1ccccc1)N1CC1(C)C` (stereo unspecified), the survivor count by setting is: under setting [12], 1 of 3; under setting [13], 0 of 3; under setting [14], 0 of 3.

As for `CCCN=C(N)c1ccc(NC(=O)c2ccc(C(=O)Nc3ccc(C(N)=NCCC)cc3)c(Cl)c2)cc1`, the T/C runs as follows: (T/C endpoint: mean survival time, dose: 5.0 mg/kg/injection, schedule: Q01DX Z (ip), vehicle: water) 130 % of control; (T/C endpoint: mean survival time, dose: 10.0 mg/kg/injection, schedule: Q01DX Z (ip), vehicle: water) 125 % of control. For the same compound, the survivor count is 5 of 6 (T/C endpoint: mean survival time, dose: 26.0 mg/kg/injection, schedule: Q01DX Z (ip), vehicle: carboxymethylcellulose (CMC)) and 0 of 6 (T/C endpoint: mean survival time, dose: 52.0 mg/kg/injection, schedule: Q01DX Z (ip), vehicle: carboxymethylcellulose (CMC)).

Consider `Cc1cc2c(cc1C)NC(C)CC(=O)N2` (stereo unspecified), for which the survivor count runs as follows: under setting [9], 6 of 6; (T/C endpoint: mean survival time, dose: 300.0 mg/kg/injection, schedule: Q01DX009 (ip), vehicle: Klucel (hydroxypropylcellulose) (HPC)) 3 of 6; (T/C endpoint: mean survival time, dose: 400.0 mg/kg/injection, schedule: Q01DX009 (ip), vehicle: saline) 0 of 6.

Take `CC(C)(C)N1CC(C(=O)c2ccccc2)C1c1ccc([N+](=O)[O-])cc1` (stereo unspecified): the survivor count (T/C endpoint: mean survival time, dose: 400.0 mg/kg/injection, schedule: Q04DX003 (ip), vehicle: Klucel (hydroxypropylcellulose) (HPC)) was 0 of 6.

Turning to `O=C(Nc1ccc(Cl)cc1)O/N=C/c1ccccn1`, the survivor count is recorded as 6 of 6 under setting [15] and 6 of 6 under setting [7].

In the case of `CC1CC(C)(C)N=C(CCC2CCCCCC2=O)O1` (stereo unspecified), the survivor count under setting [16] was 3 of 6.

Take `CCOC(CN1CCCCC1)c1ccccc1` (stereo unspecified): the survivor count is given as 1 of 6 under setting [15]; 0 of 6 under setting [7]; 0 of 6 (T/C endpoint: mean survival time, dose: 400.0 mg/kg/injection, schedule: Q01DX009 (ip), vehicle: saline with Tween-80).

Regarding `c1ccc(SCN(CSc2ccccc2)c2ccccc2)cc1`, the survivor count under setting [6] was 0 of 6.

With `NC(CCl)=NC1CCCC1`, the survivor count is, setting by setting: under setting [12], 0 of 3; under setting [13], 0 of 3; under setting [14], 0 of 3.

Turning to `Cc1cccc(C)c1N(C=O)N=O`, under setting [5], the survivor count is recorded as 0 of 4.

Regarding `c1cc2c3c(c1)/C(=N\N=C1/CCN4CCCc5cccc1c54)CCN3CCC2`, the survivor count under setting [16] is given as 6 of 6.

Regarding `Cc1ccc2c(c1)P(=O)(O)c1cc(Cl)ccc1O2`, the survivor count is 5 of 8 (T/C endpoint: median survival time, dose: 500.0 mg/kg/injection, schedule: Q01DX009 (ip), vehicle: water); 2 of 8 (T/C endpoint: median survival time, dose: 600.0 mg/kg/injection, schedule: Q04DX003 (ip), vehicle: water); 1 of 8 (T/C endpoint: median survival time, dose: 1000.0 mg/kg/injection, schedule: Q04DX003 (ip), vehicle: water).

As for `Oc1ccc(/C=N/Nc2nnc(N/N=C/c3ccc(O)cc3O)c3ccccc23)c(O)c1`, the T/C was 128 % of control (T/C endpoint: mean survival time, dose: 20.0 mg/kg/injection, schedule: Q01DX015 (ip), vehicle: carboxymethylcellulose (CMC)); 127 % of control (T/C endpoint: mean survival time, dose: 50.0 mg/kg/injection, schedule: Q01DX001 (ip), vehicle: carboxymethylcellulose (CMC)); 135 % of control (T/C endpoint: mean survival time, dose: 178.0 mg/kg/injection, schedule: Q01DX001 (ip), vehicle: carboxymethylcellulose (CMC)); 127 % of control under setting [17]. The survivor count by setting is: (T/C endpoint: mean survival time, dose: 40.0 mg/kg/injection, schedule: Q01DX009 (ip), vehicle: saline) 4 of 6; (T/C endpoint: mean survival time, dose: 53.0 mg/kg/injection, schedule: Q01DX015 (ip), vehicle: carboxymethylcellulose (CMC)) 5 of 6; (T/C endpoint: mean survival time, dose: 89.0 mg/kg/injection, schedule: Q01DX015 (ip), vehicle: carboxymethylcellulose (CMC)) 4 of 6; (T/C endpoint: mean survival time, dose: 267.0 mg/kg/injection, schedule: Q01DX001 (ip), vehicle: carboxymethylcellulose (CMC)) 3 of 6; under setting [17], 3 of 6; under setting [5], 2 of 6.

As for `OC1(c2ccccc2)c2ccccc2C(O)(c2ccccc2)c2c1ccc1ccccc21` (stereo unspecified), under setting [7], the survivor count is 6 of 6.

In the case of `CNC(=O)OCc1c(COC(=O)NC)c(-c2ccc(Cl)c(Cl)c2)n2c1CCC2`, the survivor count was 3 of 3 under setting [10] and 3 of 3 under setting [11].

Regarding `Nc1ccc(S(=O)(=O)CI)cc1`, the survivor count under setting [17] is reported as 0 of 4.

As to `Nc1ncccc1O`, the survivor count is given as 3 of 6 (T/C endpoint: mean survival time, dose: 75.0 mg/kg/injection, schedule: Q01DX001 (ip), vehicle: saline); 0 of 6 (T/C endpoint: mean survival time, dose: 150.0 mg/kg/injection, schedule: Q01DX001 (ip), vehicle: saline); 0 of 6 under setting [8].

For `CCCNC(=O)Sc1ccc(Cl)cc1`, the survivor count is, setting by setting: (T/C endpoint: mean survival time, dose: 50.0 mg/kg/injection, schedule: Q01DX009 (ip), vehicle: Klucel (hydroxypropylcellulose) (HPC)) 3 of 6; under setting [10], 0 of 3; (T/C endpoint: mean survival time, dose: 100.0 mg/kg/injection, schedule: Q04DX002 (ip), vehicle: Klucel (hydroxypropylcellulose) (HPC)) 6 of 6; under setting [11], 0 of 3; under setting [6], 0 of 3; (T/C endpoint: mean survival time, dose: 400.0 mg/kg/injection, schedule: Q04DX002 (ip), vehicle: Klucel (hydroxypropylcellulose) (HPC)) 0 of 6 and 1 of 3.
